PubChem BioAssay AID652259, Drosophila RNAi Screening Center | 2013
The screen tested about 22,000 reagents; shown is an unselected part of those that have a named target and a result. Over the whole deposit, 233 (1.1%) are marked active. 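Light values are raw, unnormalised plate reads; the ratio scores behind the reporter calls were not deposited.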 Reagent sequences are not shown. Not given: the amount of reagent, the time to read-out, the dose of the treatment.

Assay: 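Identify new Wingless signalling regulators in fly cells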 (primary screen)
System: Drosophila clone 8 imaginal disc epithelial cells
Reagents: long dsRNA against Drosophila genes
Treatment: pathway stimulated by co-transfected Wingless expression plasmid
Measurement: 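Dual luciferase reads per well after Wingless plasmid stimulation: reporter firefly light and Renilla control light; activity is firefly divided by Renilla, a ratio not deposited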
Scale: firefly reporter light: higher = more Wg reporter light, before normalisation; Renilla control light: higher = more transfected or surviving cells
Call rule: 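a knock-down is a candidate when at least two out of four statistical tests show it departing from its plate mean; one test alone signals a weak candidate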
Calls: active = candidate regulator (raises or lowers reporter); inactive = not a candidate

Muc55B (GeneID 37057) [DRSC21440] → firefly reporter light, replicate 1 = 6.66e5; firefly reporter light, replicate 2 = 7.43e5; Renilla control light, replicate 1 = 4.01e5; Renilla control light, replicate 2 = 3.13e5; Call = inactive
CG18530 (GeneID 59241) [DRSC15341] → firefly reporter light, replicate 1 = 15596; Renilla control light, replicate 1 = 5250; Call = inactive
CG11997 (GeneID 41093) [DRSC14464] → firefly reporter light, replicate 1 = 14097; Renilla control light, replicate 1 = 4016; Call = inactive
Pif2 (GeneID 170876) [DRSC12525] → firefly reporter light, replicate 1 = 13058; Renilla control light, replicate 1 = 3200; Call = inactive
CG12661 (GeneID 31822) [DRSC17864] → firefly reporter light, replicate 1 = 17632; Renilla control light, replicate 1 = 10187; Call = inactive
ple (GeneID 38746) [DRSC11383] → firefly reporter light, replicate 1 = 2019; firefly reporter light, replicate 2 = 6908; Renilla control light, replicate 1 = 1026; Renilla control light, replicate 2 = 2386; Call = inactive
CG10680 (GeneID 35282) [DRSC02093] → firefly reporter light, replicate 1 = 2789; firefly reporter light, replicate 2 = 8424; Renilla control light, replicate 1 = 709; Renilla control light, replicate 2 = 3338; Call = inactive
CG43347 (GeneID 31991) [DRSC17982] → firefly reporter light, replicate 1 = 19713; Renilla control light, replicate 1 = 8682; Call = inactive
CG43347 (GeneID 31991) [DRSC18446] → firefly reporter light, replicate 1 = 30851; Renilla control light, replicate 1 = 10742; Call = inactive
CG43347 (GeneID 31991) [DRSC22656] → firefly reporter light, replicate 1 = 5.10e5; firefly reporter light, replicate 2 = 4.47e5; Renilla control light, replicate 1 = 1.24e5; Renilla control light, replicate 2 = 368; Call = inactive
CG43347 (GeneID 31991) [DRSC22682] → firefly reporter light, replicate 1 = 8.40e5; firefly reporter light, replicate 2 = 8.59e5; Renilla control light, replicate 1 = 1.55e5; Renilla control light, replicate 2 = 1.56e5; Call = inactive
Polr2I (GeneID 41741) [DRSC16832] → firefly reporter light, replicate 1 = 14580; Renilla control light, replicate 1 = 2512; Call = inactive
PGRP-SB1 (GeneID 39870) [DRSC11090] → firefly reporter light, replicate 1 = 5621; Renilla control light, replicate 1 = 2544; Call = inactive
CG17122 (GeneID 40226) [DRSC10245] → firefly reporter light, replicate 1 = 16933; Renilla control light, replicate 1 = 6468; Call = inactive
CG13992 (GeneID 33831) [DRSC02324] → firefly reporter light, replicate 1 = 2512; firefly reporter light, replicate 2 = 4992; Renilla control light, replicate 1 = 946; Renilla control light, replicate 2 = 1943; Call = inactive
ChAT (GeneID 42249) [DRSC13314] → firefly reporter light, replicate 1 = 3520; Renilla control light, replicate 1 = 914; Call = inactive
ChAT (GeneID 42249) [DRSC16609] → firefly reporter light, replicate 1 = 15185; Renilla control light, replicate 1 = 3005; Call = inactive
ChAT (GeneID 42249) [DRSC22755] → firefly reporter light, replicate 1 = 3.84e5; firefly reporter light, replicate 2 = 6.11e5; Renilla control light, replicate 1 = 1.74e5; Renilla control light, replicate 2 = 1.54e5; Call = inactive
Gr59d (GeneID 117343) [DRSC22553] → firefly reporter light, replicate 1 = 6.28e5; firefly reporter light, replicate 2 = 6.38e5; Renilla control light, replicate 1 = 2.65e5; Renilla control light, replicate 2 = 2.60e5; Call = inactive
CG15412 (GeneID 33553) [DRSC00427] → firefly reporter light, replicate 1 = 1880; firefly reporter light, replicate 2 = 4768; Renilla control light, replicate 1 = 988; Renilla control light, replicate 2 = 995; Call = inactive
NimC1 (GeneID 34816) [DRSC01879] → firefly reporter light, replicate 1 = 1484; firefly reporter light, replicate 2 = 6297; Renilla control light, replicate 1 = 1082; Renilla control light, replicate 2 = 2658; Call = inactive
otu (GeneID 31789) [DRSC18811] → firefly reporter light, replicate 1 = 21492; Renilla control light, replicate 1 = 8681; Call = inactive
CG9313 (GeneID 37374) [DRSC04540] → firefly reporter light, replicate 1 = 13036; Renilla control light, replicate 1 = 1809; Call = inactive
Prm (GeneID 39002) [DRSC08941] → firefly reporter light, replicate 1 = 4098; Renilla control light, replicate 1 = 1669; Call = inactive
Prm (GeneID 39002) [DRSC08942] → firefly reporter light, replicate 1 = 3261; Renilla control light, replicate 1 = 1194; Call = inactive
Prm (GeneID 39002) [DRSC11255] → firefly reporter light, replicate 1 = 9008; Renilla control light, replicate 1 = 3904; Call = inactive
